Among the data in PMC3212078, “Atomic Force Microscopy Study of Protein–Protein Interactions in the Cytochrome CYP11A1 (P450scc)-Containing Steroid Hydroxylase System” (Nanoscale Research Letters, 2010) are binding values, retold here.

Results are given in words; binding and its absence hold for the method and conditions named. Some results given as binding are weak or reduced against the parent protein; the word gives no strength.

Experiment [1] has as its target adrenodoxin reductase (UniProt P08165). As to the kind of experiment: atomic force microscopy; single proteins: 5 μl of 1 μM Ad or 1 μM AdR in 50 mM KP pH 7.4 on freshly cleaved mica; tapping mode in air; height distribution; both purified.
The target in experiment [2] is T1, cytochrome CYP11A1 (P450scc) (bovine, UniProt P00189 40-520).
T1 construct: The same protein was used either untreated (oligomeric, non-monomerized) or after incubation with 4-12% Emulgen 913 (monomerized); the assays tell the two states apart; also called CYP11A1mon; monomerized CYP11A1; source: isolated from bovine adrenal glands
T1 sequence (looked up): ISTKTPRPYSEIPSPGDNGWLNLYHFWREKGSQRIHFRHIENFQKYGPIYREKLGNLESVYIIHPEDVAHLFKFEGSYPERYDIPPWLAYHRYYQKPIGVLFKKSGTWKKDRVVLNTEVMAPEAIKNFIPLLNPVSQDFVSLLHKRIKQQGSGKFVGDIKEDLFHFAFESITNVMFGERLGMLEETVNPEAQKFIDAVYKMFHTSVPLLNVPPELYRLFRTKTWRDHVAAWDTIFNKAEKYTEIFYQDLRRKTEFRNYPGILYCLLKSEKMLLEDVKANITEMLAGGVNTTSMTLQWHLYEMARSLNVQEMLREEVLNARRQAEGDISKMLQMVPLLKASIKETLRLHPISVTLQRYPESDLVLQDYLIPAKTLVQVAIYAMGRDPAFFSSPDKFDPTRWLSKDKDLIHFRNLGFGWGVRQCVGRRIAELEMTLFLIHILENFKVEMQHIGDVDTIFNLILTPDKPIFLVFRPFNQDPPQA
As to the kind of experiment: atomic force microscopy; ternary mixture: 10 μl each of 7.5 μM monomeric CYP11A1 (containing 1.5% Emulgen 913), Ad and AdR in 50 mM KP pH 7.4, incubated 10 min, diluted 2.5 times, adsorbed on mica; tapping mode in air; height distribution compared with those of the binary mixtures; both purified.

Experiment [3] deals with T2, adrenodoxin (UniProt P00257).
T2 sequence: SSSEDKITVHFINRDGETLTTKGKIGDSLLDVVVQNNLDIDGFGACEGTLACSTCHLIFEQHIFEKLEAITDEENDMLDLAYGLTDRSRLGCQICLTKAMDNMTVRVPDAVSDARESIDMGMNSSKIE
Described as above.

Experiment [4] deals with adrenodoxin reductase (UniProt P08165). Briefly: photon correlation spectroscopy; single proteins in 50 mM KP pH 7.4; AdR 5 μM, Ad 0.2 mM; light scattering at 90°; hydrodynamic diameter; both purified.
For experiment [5], the target named is T2, adrenodoxin. As to the kind of experiment: atomic force microscopy; single proteins: 5 μl of 1 μM Ad or 1 μM AdR in 50 mM KP pH 7.4 on freshly cleaved mica; tapping mode in air; height distribution; both purified.
Experiment [6] concerns the target T2, adrenodoxin. Briefly: photon correlation spectroscopy; single proteins in 50 mM KP pH 7.4; AdR 5 μM, Ad 0.2 mM; light scattering at 90°; hydrodynamic diameter; both purified.

B1: adrenodoxin reductase (enzyme, UniProt P08165 33-492)
chain: STQEQTPQICVVGSGPAGFYTAQHLLKHHSRAHVDIYEKQLVPFGLVRFGVAPDHPEVKNVINTFTQTARSDRCAFYGNVEVGRDVTVQELQDAYHAVVLSYGAEDHQALDIPGEELPGVFSARAFVGWYNGLPENRELAPDLSCDTAVILGQGNVALDVARILLTPPDHLEKTDITEAALGALRQSRVKTVWIVGRRGPLQVAFTIKELREMIQLPGTRPMLDPADFLGLQDRIKEAARPRKRLMELLLRTATEKPGVEEAARRASASRAWGLRFFRSPQQVLPSPDGRRAAGIRLAVTRLEGIGEATRAVPTGDVEDLPCGLVLSSIGYKSRPIDPSVPFDPKLGVVPNMEGRVVDVPGLYCSGWVKRGPTGVITTTMTDSFLTGQILLQDLKAGHLPSGPRPGSAFIKALLDSRGVWPVSFSDWEKLDAEEVSRGQASGKPREKLLDPQEMLRLLGH
With B1, the binding entry is listed as “no binding (tested: 1 μM)” in the experiment with adrenodoxin reductase [1], “binds” in experiment [2], “binds” in the experiment with adrenodoxin [3] and “no binding (tested: 5 μM)” in the experiment with adrenodoxin reductase [4].

B2: cytochrome CYP11A1 (P450scc) (enzyme, UniProt P00189 40-520)
chain: ISTKTPRPYSEIPSPGDNGWLNLYHFWREKGSQRIHFRHIENFQKYGPIYREKLGNLESVYIIHPEDVAHLFKFEGSYPERYDIPPWLAYHRYYQKPIGVLFKKSGTWKKDRVVLNTEVMAPEAIKNFIPLLNPVSQDFVSLLHKRIKQQGSGKFVGDIKEDLFHFAFESITNVMFGERLGMLEETVNPEAQKFIDAVYKMFHTSVPLLNVPPELYRLFRTKTWRDHVAAWDTIFNKAEKYTEIFYQDLRRKTEFRNYPGILYCLLKSEKMLLEDVKANITEMLAGGVNTTSMTLQWHLYEMARSLNVQEMLREEVLNARRQAEGDISKMLQMVPLLKASIKETLRLHPISVTLQRYPESDLVLQDYLIPAKTLVQVAIYAMGRDPAFFSSPDKFDPTRWLSKDKDLIHFRNLGFGWGVRQCVGRRIAELEMTLFLIHILENFKVEMQHIGDVDTIFNLILTPDKPIFLVFRPFNQDPPQA
In the case of B2, the binding entry with adrenodoxin [3] is reported as “binds”.

B3: adrenodoxin (natural protein, UniProt P00257 59-186, looked up)
chain: SSSEDKITVHFINRDGETLTTKGKIGDSLLDVVVQNNLDIDGFGACEGTLACSTCHLIFEQHIFEKLEAITDEENDMLDLAYGLTDRSRLGCQICLTKAMDNMTVRVPDAVSDARESIDMGMNSSKIE
notes: adrenodoxin (Ad), recombinant; source: E. coli BL21DE3, purified after sonification
As for B3, the binding entry with adrenodoxin [5] is “no binding (tested: 1 μM)”; with adrenodoxin [6], “no binding (tested: 0.2 mM)”.
